Laboratory results: PubChem BioAssay AID1259424 (University of Nebraska Medical Center, 2018)
The deposit covers about 14,000 reagents; below is an unselected part. 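Higher correlation or smaller distance means closer resemblance to KSR1 loss; control wells, including KSR1 knockdowns, recur on many plates.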 Further read-outs or replicates are left out here. The record does not give: the time to read-out.

- Test: 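Rank knockdowns across the genome by resemblance to the KSR1 depletion profile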 (primary screen)
- Cells: human HCT116 colon cancer cells
- Knock-down reagent: siRNA pool against human genes, 50 nM
- Detection: 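Log2 levels of six mRNAs (branched-DNA multiplex), adjusted by two reference genes and the non-targeting median, then scored against the average KSR1 knockdown pattern as Pearson r and euclidean distance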
- Reading the numbers: mean correlation with KSR1 profile: higher = expression change more like KSR1 knockdown

Knock-down of PHKG2 [SID363991626] resulted in: mean correlation with KSR1 profile 0.463.
Against IL11RA [SID363995487], the entry reads mean correlation with KSR1 profile 0.116.
For TBX4 [SID364001114], the entry reads mean correlation with KSR1 profile 0.0392.
Depletion of NF1 [SID363991600] resulted in: mean correlation with KSR1 profile -0.0223.
After knock-down of RAB6C [SID364003800], the record shows mean correlation with KSR1 profile 0.666.
Against RGS20 [SID363994772] the deposit lists mean correlation with KSR1 profile 0.702.
With knock-down of FDXR [SID363995120] the results were mean correlation with KSR1 profile -0.0598.
Depletion of KIF5B [SID363995496] gave: mean correlation with KSR1 profile -0.366.
RPA4 [SID363998456] scored mean correlation with KSR1 profile 0.31.
With knock-down of MOSPD1 [SID364001419], the screen gave mean correlation with KSR1 profile -0.666.
MMP14 [SID363995934] gave mean correlation with KSR1 profile -0.291.
PCDHGC5 [SID364001256] scored mean correlation with KSR1 profile 0.247.
Knock-down of PPIP5K1 [SID363999015] gave: mean correlation with KSR1 profile -0.351.
LUC7L2 [SID363999798] gave mean correlation with KSR1 profile -0.505.
For NEK11 [SID364003069], the entry reads mean correlation with KSR1 profile -0.342.
After knock-down of MFSD11 [SID364002785], the record shows mean correlation with KSR1 profile -0.344.
Against SLC38A12 [SID364000476], the values are mean correlation with KSR1 profile -0.255.
After knock-down of CGGBP1 [SID363994738] the results were mean correlation with KSR1 profile -0.0903.
After knock-down of CD200R1 [SID364004579], the record shows mean correlation with KSR1 profile -0.324.
